Data published in PubChem BioAssay AID493085 (Broad Institute, 2011).
Screen size: about 2,400 compounds; about 360 (15%) were called active. The inconclusive results got no clear call from the source; some entries with a clear call stand among them for comparison.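 How the source made its calls: active means falling-signal curve with half-maximal concentration at or below ten times the top tested dose; inconclusive means flat fit at 30 to 70% inhibition, or poor fit; inactive means signal rise, flat within 30%, or potency beyond limit.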

Experiment: dox-induced RFP signal loss in R4-3T3 cells – cell-based, NIH3T3 R4, HSE-GFP and Tet-On RFP, cherry-pick, set 3, dose response (AID 493085);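 further: cells heat shocked 2 h at 42 °C with doxycycline to induce reporters; 0% = neutral control wells and -100% = didemnin B control at 400 nM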
Details: NIH3T3 R4 HSE-GFP/Tet-RFP reporter, fluorescence, 48 h; at 19.5 µM (top of the series)

Question: With `Cc1cc(C)c2c(c1)/C(=N/NS(=O)(=O)c1ccc(Br)cc1)CCC2` as the compound, how does the activity change, negative = inhibition read?
Answer: inconclusive: -11.3%

Question: With `Cc1nn(-c2ccccc2Cl)c(Cl)c1/C=N/Nc1nc2ccccc2s1` as the compound, how does the activity change, negative = inhibition read?
Answer: inconclusive: 57.2%

Question: For `O=C(CCl)N(c1ccc(Cl)cc1)c1c[nH]c2ccccc12`, which activity change, negative = inhibition is on record?
Answer: inconclusive: -95.7%

Question: For `COc1ccc(/C=N/c2c(-c3ccc(OC)cc3)nc3n2CCS3)cc1`, which activity change, negative = inhibition is on record?
Answer: inconclusive: 49.1%

Question: For `CC1(C)Cc2c(sc3nc(C4CC4)n(N)c(=O)c23)CO1`, which activity change, negative = inhibition is on record?
Answer: inconclusive: -1.33%

Question: For `C/C(CC(=O)Nc1ccc(N(C)C)cc1)=N\NC(=O)Cc1csc(N)n1`, which activity change, negative = inhibition is on record?
Answer: inactive: -0.381%

Question: With `O=C(Nc1cccc(Cl)c1)N1CCOCC1` as the compound, how does the activity change, negative = inhibition read?
Answer: inconclusive: -24.5%

Question: For `Oc1c(CN2CCOCC2)cc(COCc2ccccc2)c2cccnc12`, which activity change, negative = inhibition is on record?
Answer: inactive: 94.7%

Question: With `O=S1(=O)C=C(Sc2nc3ccccc3s2)c2ccccc21` as the compound, how does the activity change, negative = inhibition read?
Answer: inconclusive: -33.4%

Question: Which activity change, negative = inhibition does the source give for `Cc1cc(NC(=O)COc2coc(CN3CCN(c4ccccc4F)CC3)cc2=O)no1` here?
Answer: inactive: -3.4%

Question: Which activity change, negative = inhibition does the source give for `CC(c1ccccc1)N1CCN(C(=O)CCl)CC1` (stereo not given) here?
Answer: inactive: 2.46%

Question: With `Cc1ccc(NC(=O)C2=C(c3ccccc3)S(=O)(=O)CCS2(=O)=O)cc1` as the compound, how does the activity change, negative = inhibition read?
Answer: inconclusive: -77%

Question: For `CCOc1nc(C)ccc1-c1noc(-c2cccnc2)n1`, which activity change, negative = inhibition is on record?
Answer: inconclusive: -4.79%

Question: For `COc1cc(C(C(=O)NCc2ccccc2)N(Cc2ccco2)C(=O)c2cnccn2)cc(OC)c1OC` (stereo not given), which activity change, negative = inhibition is on record?
Answer: inactive: -12.3%

Question: For `O=C1COc2ccc(N3C(=O)C=CC3=O)cc2N1`, which activity change, negative = inhibition is on record?
Answer: inconclusive: -41.6%

Question: Which activity change, negative = inhibition does the source give for `CCOC(=O)/C=C/C(=O)Nc1ccccc1-c1ccccc1NC(=O)/C=C/C(=O)OCC` here?
Answer: inconclusive: -94.9%

Question: For `Cc1cn2c(nc(=O)c3cccnc32)s1`, which activity change, negative = inhibition is on record?
Answer: inactive: -0.559%

Question: For `CCOc1cc(/C=C\[N+](=O)[O-])ccc1OCC(=O)Nc1ccccc1C`, which activity change, negative = inhibition is on record?
Answer: inconclusive: -65.4%

Question: For `Cc1ccc(-c2cc3c(N=O)c4ccccc4c-3n[nH]2)cc1`, which activity change, negative = inhibition is on record?
Answer: inconclusive: 9.74%

Question: Which activity change, negative = inhibition does the source give for `CCC(=O)N1CCN(c2ccc(NC(=O)c3ccc([N+](=O)[O-])o3)cc2)CC1` here?
Answer: inconclusive: -23.6%

Question: With `COc1ccccc1Nc1nc(NCCCN(C)C)nc(N)c1[N+](=O)[O-]` as the compound, how does the activity change, negative = inhibition read?
Answer: inactive: -1.84%

Question: With `CCCCS(=O)(=O)/C=C\C=C/S(=O)(=O)CCCC` as the compound, how does the activity change, negative = inhibition read?
Answer: inconclusive: -39.4%

Question: For `CCOC(=O)c1c(C)[nH]c(C)c1S(=O)(=O)NCCc1cccs1`, which activity change, negative = inhibition is on record?
Answer: inconclusive: 19.2%

Question: For `CC(C)c1nnc(NC(=O)c2nc(S(=O)(=O)Cc3ccc(F)cc3)ncc2Cl)s1`, which activity change, negative = inhibition is on record?
Answer: inconclusive: 0.352%

Question: With `O=C1OC2(CCCCC2)OC(=O)C1=CNc1nccs1` as the compound, how does the activity change, negative = inhibition read?
Answer: inactive: -3.79%

Question: With `CC[n+]1c(/C=C/c2cc([N+](=O)[O-])ccc2O)ccc2ccccc21` as the compound, how does the activity change, negative = inhibition read?
Answer: inconclusive: 11.6%

Question: For `COCCNC(=O)C(OC(=O)c1cccs1)c1ccccc1` (stereo not given), which activity change, negative = inhibition is on record?
Answer: inconclusive: 2.58%

Question: Which activity change, negative = inhibition does the source give for `CCOc1ccc(OCc2cccc(C(=O)N/N=C/c3cccnc3)c2)cc1` here?
Answer: inconclusive: 14.2%

Question: With `CSC1=N/C(=C\C=C\c2cccs2)C(=O)S1` as the compound, how does the activity change, negative = inhibition read?
Answer: inconclusive: -40.4%

Question: Which activity change, negative = inhibition does the source give for `CC(C)c1ccc(NC(=O)CNC(=O)Cn2cnc3ccccc3c2=O)cc1` here?
Answer: inconclusive: 4.49%

Question: With `CCOc1ccccc1-n1c(SCC(=O)Nc2ccccc2C(=O)O)nc2ccccc2c1=O` as the compound, how does the activity change, negative = inhibition read?
Answer: inconclusive: -40.6%

Question: With `Cc1ccc(N=C2NC(=O)/C(=C\c3cccs3)S2)cc1C` as the compound, how does the activity change, negative = inhibition read?
Answer: inactive: 9.6%

Question: With `Cc1ccc(-c2nnn(CC(=O)N(Cc3cccs3)C(C(=O)NC3CCCC3)c3ccncc3)n2)cc1` (stereo not given) as the compound, how does the activity change, negative = inhibition read?
Answer: inconclusive: -16.8%

Question: Which activity change, negative = inhibition does the source give for `CC(C)Cc1csc(NC(=O)c2ccc(F)cc2)c1C(=O)O` here?
Answer: inconclusive: -14.2%

Question: For `COC(=O)C1=C(C)Nc2c(c(=O)n(C)c(=O)n2C)C1c1cccc(O)c1` (stereo not given), which activity change, negative = inhibition is on record?
Answer: inactive: -4.13%

Question: For `Cc1ccc(S(=O)(=O)c2ccc(Oc3ccccc3)cc2)cc1`, which activity change, negative = inhibition is on record?
Answer: inactive: -13.6%

Question: For `CC(CCc1ccccc1)NC(=O)c1cccc([N+](=O)[O-])c1` (stereo not given), which activity change, negative = inhibition is on record?
Answer: inconclusive: -14.6%

Question: For `COc1ccc(/C=N/NC(=O)CN(C)S(=O)(=O)c2ccc(NC(C)=O)cc2)cc1`, which activity change, negative = inhibition is on record?
Answer: inactive: 0.548%

Question: Which activity change, negative = inhibition does the source give for `O=C(O)c1cc(S(=O)(=O)N(Cc2ccccc2)c2ccccc2Cl)ccc1Cl` here?
Answer: inactive: -9.49%

Question: With `S=c1[nH]nc(-c2ccncc2)n1Cc1ccco1` as the compound, how does the activity change, negative = inhibition read?
Answer: inconclusive: 30.9%

Question: For `O=C(NCCc1ccccc1)C(c1cccs1)N(C(=O)CCl)c1ccc(Cl)cc1` (stereo not given), which activity change, negative = inhibition is on record?
Answer: inconclusive: -71.8%

Question: Which activity change, negative = inhibition does the source give for `O=C(c1cccs1)n1nc(-c2ccco2)nc1SCc1ccccc1` here?
Answer: inactive: -5.18%

Question: Which activity change, negative = inhibition does the source give for `CN(CC(=O)Nc1ccccc1Br)C(=O)c1cccn1C` here?
Answer: inconclusive: -4.88%

Question: For `CC(C)[C@H](NC(=O)Cc1ccccc1)C(=O)OCc1cc(=O)n2c(n1)sc1ccccc12`, which activity change, negative = inhibition is on record?
Answer: inconclusive: 28.1%

Question: With `CC(=O)N1CCN(c2ccc(NC(=O)c3ccc([N+](=O)[O-])o3)cc2Cl)CC1` as the compound, how does the activity change, negative = inhibition read?
Answer: inconclusive: -76.5%
